Test results as given in US10640547B2, “Immunotherapy against melanoma and other cancers” (IMMATICS BIOTECHNOLOGIES GMBH, priority 2016, dated 2020).

System: HLA molecules of melanoma, other tumor and normal tissue samples
Assay: Identification and relative quantitation of tumor associated peptides presented on the cell surface (HLA immunoprecipitation, label-free LC-MS)
Set-up: species or system human; key to Peptide Presentation (presentation score): very highly over-presented on tumors compared to a panel of normal tissues (+++); highly over-presented on tumors compared to a panel of normal tissues (++); over-presented on tumors compared to a panel of normal tissues (+)
Settings: for Peptide Presentation (presentation score): over-presentation on tumors compared to a panel of normal tissues; for Additional Entities (additional tumor types on which the peptide was found) / relevant organs/diseases (additional tumor types on which the peptide was found): over-presented on more than 5% of the measured tumor samples, or presented on more than 5% with ratio of geometric means tumor vs normal tissues larger than 3

Substance	Peptide Presentation (presentation score)	Additional Entities (additional tumor types on which the peptide was found)	relevant organs/diseases (additional tumor types on which the peptide was found)	over-presentation in different cancer tissues (HLA-A*02 positive normal and tumor samples, FIG. 1E-1J)
89 (ILDNSPAFL; listed as Homo sapiens) [compound 89]	+++			
117 (KQQASQVLV; listed as Homo sapiens) [compound 117]	++			
159 (TILATVPLV; listed as Homo sapiens) [compound 159]	++	GC, HNSCC	SCLC, NHL, AML, BRCA, Urinary bladder cancer, Uterine Cancer, Gallbladder Cancer, Bile Duct Cancer	
33 (SLYSYFQKV; listed as Homo sapiens) [compound 33]	+++			
190 (RLVSLITLL; listed as Homo sapiens) [compound 190]	+++		CLL	
149 (YLDTFALKL; listed as Homo sapiens) [compound 149]	+			
197 (ALDSGFNSV; listed as Homo sapiens) [compound 197]	+		CLL, NHL, Uterine Cancer	
6 (SIPDTIASV; listed as Homo sapiens) [compound 6]	+++			
135 (FLDDQETRL; listed as Homo sapiens) [compound 135]	+	HNSCC	SCLC, CLL, OC	
73 (ELDKIYETL; listed as Homo sapiens) [compound 73]	+++			
88 (ILDGIIREL; listed as Homo sapiens) [compound 88]	++			
111 (VLDVSFNRL; listed as Homo sapiens) [compound 111]	+++			
68 (FLAEAARSL; listed as Homo sapiens) [compound 68]	+++	HCC		
94 (LLDAFSIKL; listed as Homo sapiens) [compound 94]	+++			
63 (SIDDSDPIV; listed as Homo sapiens) [compound 63]	+++			
20 (VISPHGIASV; listed as Homo sapiens) [compound 20]	+++	Esophageal Cancer, HNSCC	Brain Cancer, Uterine Cancer	
174 (TLLEGLTEL; listed as Homo sapiens) [compound 174]			OC, Uterine Cancer	
107 (TLVAFLQQV; listed as Homo sapiens) [compound 107]	+++			
170 (KLKEAVEAI; listed as Homo sapiens) [compound 170]	++	HCC	RCC, CLL, NHL	
104 (SLDQIIQHL; listed as Homo sapiens) [compound 104]	+++	AML		
123 (LLGEGIPSA; listed as Homo sapiens) [compound 123]		HNSCC	Urinary bladder cancer, Uterine Cancer	
SEQ ID NO.: 151 (FLGEPASYLYL; listed as Homo sapiens)				over-presentation
206 (LLYEDIPDKV; listed as Homo sapiens) [compound 206]	+	RCC, HCC, HNSCC	CLL, NHL, Esophageal Cancer, OC, Urinary bladder cancer	
169 (TLLESIQHV; listed as Homo sapiens) [compound 169]	+	HNSCC	SCLC, Brain Cancer, CRC, NHL, AML, BRCA, OC	
109 (VIDDLIQKL; listed as Homo sapiens) [compound 109]	+++	AML		
115 (YIDDVFMGL; listed as Homo sapiens) [compound 115]	+++			
224 (ILDEPTNHL; listed as Homo sapiens) [compound 224]	+	Uterine Cancer	CLL	

Substance	Peptide Presentation (presentation score)	Additional Entities (additional tumor types on which the peptide was found)	relevant organs/diseases (additional tumor types on which the peptide was found)	over-presentation in different cancer tissues (HLA-A*02 positive normal and tumor samples, FIG. 1E-1J)
80 (FADELSHLL; listed as Homo sapiens) [compound 80]	+++		AML	
116 (LMDETMKEL; listed as Homo sapiens) [compound 116]	++		NSCLC, Brain Cancer, HCC, NHL, BRCA, OC, Urinary bladder cancer, Gallbladder Cancer, Bile Duct Cancer	
110 (VLDTLTKVL; listed as Homo sapiens) [compound 110]	+++			
54 (LLDSGAFHL; listed as Homo sapiens) [compound 54]	+++			
230 (HLDEARTLL; listed as Homo sapiens) [compound 230]	+		CLL, NHL, AML, Uterine Cancer	
130 (GLVDVLYTA; listed as Homo sapiens) [compound 130]	+		NSCLC, RCC, Brain Cancer, BRCA, Esophageal Cancer, Uterine Cancer	
199 (AIHTAILTL; listed as Homo sapiens) [compound 199]			CRC, BRCA	
11 (TLIELLLPKL; listed as Homo sapiens) [compound 11]	+++		CLL	
37 (TLKEYLESL; listed as Homo sapiens) [compound 37]	+++	HCC, Esophageal Cancer		
56 (ILDELVKSL; listed as Homo sapiens) [compound 56]	+++			
62 (LLDTTQKYL; listed as Homo sapiens) [compound 62]	+++	AML		
157 (HLFETISQA; listed as Homo sapiens) [compound 157]	++		Urinary bladder cancer	
237 (VLYNESLQL; listed as Homo sapiens) [compound 237]		CLL, AML	NHL	
34 (YLINFEIRSL; listed as Homo sapiens) [compound 34]	+++			
28 (IVDNTTMQL; listed as Homo sapiens) [compound 28]	+	GC, AML		
183 (FLDSLIYGA; listed as Homo sapiens) [compound 183]			AML, BRCA, Uterine Cancer	
221 (SLLPTEQPRL; listed as Homo sapiens) [compound 221]	++	HNSCC	NSCLC, SCLC, Brain Cancer, CRC, HCC, PrC, CLL, NHL, Esophageal Cancer, Urinary bladder cancer, Uterine Cancer, Gallbladder Cancer, Bile Duct Cancer	
182 (SVALVIHNV; listed as Homo sapiens) [compound 182]	+	RCC, GC, HCC	NHL	
18 (SLADVVDTL; listed as Homo sapiens) [compound 18]	+		Brain Cancer, CLL, NHL, Uterine Cancer	
27 (TLWYVPLSL; listed as Homo sapiens) [compound 27]	++	HNSCC	CLL, NHL, AML, Uterine Cancer	
137 (ILPSNLLTV; listed as Homo sapiens) [compound 137]	+	HCC, CLL, Urinary bladder cancer, Uterine Cancer, AML, NHL		
59 (IIDDVMKEL; listed as Homo sapiens) [compound 59]	++	AML		
225 (VLFGAVITGA; listed as Homo sapiens) [compound 225]	+	HNSCC	SCLC, Brain Cancer, HCC, PC, CLL, NHL, AML, BRCA, Esophageal Cancer, Urinary bladder cancer, Uterine Cancer	
158 (KLIPSIIVL; listed as Homo sapiens) [compound 158]			AML	
203 (FLNEDISKL; listed as Homo sapiens) [compound 203]	+++	HCC	RCC	
97 (NLDATVTAL; listed as Homo sapiens) [compound 97]	+++			
